Measured values taken from PubChem BioAssay AID2417 (National Center for Advancing Translational Sciences (NCATS), 2010).
About 4,300 (3.1%) of roughly 140,000 compounds were called active. The inconclusive results got no clear call from the source; some entries with a clear call stand among them for comparison.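 The calls were made as follows: active = readout at or below -70, meaning at least 70% loss of cells showing the perinucleolar compartment, a nuclear body marking cancer cells; inconclusive = readout between -30 and a set limit; inactive = the rest.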

Experiment: High Content Assay for Compounds that inhibit the Assembly of the Perinucleolar Compartment;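 also: plate controls were DMSO wells for no effect and camptothecin positive control wells for full effect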
Details: PC3M PTB-GFP, PNC prevalence imaging, 16 h; at 10 µM; hits give low values
Summary of the method: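 Read-out is percentage of cells bearing a perinucleolar compartment, from automated 20x imaging of fixed, Hoechst-stained PC3M PTB-GFP cells. Cells were seeded 4 h, then exposed 16 h to compound (23 nl of library stock) in duplicate plates.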

**Q.** For `COc1cc2c(cc1NC(=O)COC(=O)[C@@H](NC(=O)c1ccccc1F)C(C)C)oc1ccccc12`, which activity change (PNC), negative = inhibition is on record?
**A.** inconclusive: -75.6%

**Q.** Which activity change (PNC), negative = inhibition does the source give for `CC(=O)N(CC1CCCO1)c1nnc(-c2ccccn2)s1` (stereo not given) here?
**A.** inconclusive: -38.3%

**Q.** Which activity change (PNC), negative = inhibition does the source give for `Cc1cccc(C(CC(=O)N2CCCC2)c2ccccc2)c1O` (stereo not given) here?
**A.** inactive: 37.2%

**Q.** For `O=C(O)C1C2CCC(C2)C1C(=O)NCc1ccco1` (stereo not given), which activity change (PNC), negative = inhibition is on record?
**A.** active: -100%

**Q.** For `O=C(c1ccc(CS(=O)(=O)c2ccc(Br)cc2)o1)N1CCN(c2ccccn2)CC1`, which activity change (PNC), negative = inhibition is on record?
**A.** inconclusive: -64.1%

**Q.** With `CCOC(=O)C1CCCN(Cc2nc(N)nc(Nc3ccc(C)cc3)n2)C1` (stereo not given) as the compound, how does the activity change (PNC), negative = inhibition read?
**A.** inconclusive: -36.6%

**Q.** With `COc1ccc(-n2c(Cc3cccn3C)nnc2SCC(=O)Nc2ccccc2)cc1` as the compound, how does the activity change (PNC), negative = inhibition read?
**A.** inconclusive: -43%

**Q.** For `CC1CCN(S(=O)(=O)c2ccc3c(c2)N(CC(=O)NCc2cccnc2)C(=O)CS3)CC1`, which activity change (PNC), negative = inhibition is on record?
**A.** inactive: -19.8%

**Q.** For `CN(C)CCCNc1cn[nH]c(=O)c1Cl`, which activity change (PNC), negative = inhibition is on record?
**A.** inactive: 29.4%

**Q.** For `COCCN(C(=O)CSc1nncn1-c1ccccc1)c1c(N)n(Cc2ccccc2)c(=O)[nH]c1=O`, which activity change (PNC), negative = inhibition is on record?
**A.** inconclusive: -39.4%

**Q.** For `c1ccc(CNCc2ccc3c(c2)OCO3)nc1`, which activity change (PNC), negative = inhibition is on record?
**A.** inconclusive: -39.3%

**Q.** Which activity change (PNC), negative = inhibition does the source give for `CCC1=Nc2cc(C(=O)NCc3ccco3)ccc2Sc2ccc(Cl)cc21` here?
**A.** active: -100%

**Q.** With `CN(C)c1ccc(C2NCCS2)cc1` (stereo not given) as the compound, how does the activity change (PNC), negative = inhibition read?
**A.** inconclusive: -49.2%

**Q.** Which activity change (PNC), negative = inhibition does the source give for `COc1ccc(C(=O)NCc2n[nH]c(=S)n2-c2ccccc2)cc1OC` here?
**A.** inactive: 29.2%

**Q.** For `CC(=O)Nc1ccc(S(=O)(=O)Oc2ccc(C(=S)N3CCCCC3)cc2)cc1`, which activity change (PNC), negative = inhibition is on record?
**A.** inconclusive: -33.1%

**Q.** For `O=c1[nH]c2cc3c(cc2cc1CN(Cc1nnnn1CC1CCCO1)C1CCCCC1)OCO3` (stereo not given), which activity change (PNC), negative = inhibition is on record?
**A.** inactive: -7.52%

**Q.** Which activity change (PNC), negative = inhibition does the source give for `O=C(C#Cc1cccc([N+](=O)[O-])c1)c1ccccc1` here?
**A.** inconclusive: -49.4%

**Q.** Which activity change (PNC), negative = inhibition does the source give for `CC(C)NC(=O)COC(=O)c1ccc(Cl)c(S(=O)(=O)N2CCCC2)c1` here?
**A.** inconclusive: -49.1%

**Q.** With `CCc1cc2cccc(C)c2nc1SCC(=O)c1ccc(NC(C)=O)cc1` as the compound, how does the activity change (PNC), negative = inhibition read?
**A.** inconclusive: -61.6%

**Q.** Which activity change (PNC), negative = inhibition does the source give for `CC1CC(C)CN(C(=O)c2ccncc2)C1` (stereo not given) here?
**A.** inconclusive: -57.7%

**Q.** Which activity change (PNC), negative = inhibition does the source give for `Cc1nc(SCC(=O)NCc2ccco2)c2c(C)c(C)sc2n1` here?
**A.** inconclusive: -62.1%

**Q.** For `O=C(CN1C(=O)NC2(CCCC2)C1=O)Nc1ccccc1F`, which activity change (PNC), negative = inhibition is on record?
**A.** inconclusive: -57.2%

**Q.** For `CC(=O)Nc1ccc(S(=O)(=O)N(Cc2ccco2)CC2CCCO2)cc1` (stereo not given), which activity change (PNC), negative = inhibition is on record?
**A.** inactive: -11.1%

**Q.** With `CC(C)(C)N(NC(=O)c1ccccc1)C(=O)c1ccc(C(=O)N(NC(=O)c2ccccc2)C(C)(C)C)cc1` as the compound, how does the activity change (PNC), negative = inhibition read?
**A.** inconclusive: -51.2%

**Q.** With `COC(=O)[C@H](CCSC)NC(=O)Nc1ccc(C(C)=O)cc1` as the compound, how does the activity change (PNC), negative = inhibition read?
**A.** inconclusive: -33.2%

**Q.** For `COC(=O)C1C(=O)C2=C(CC1C)NC(C)=C(C(=O)OCc1ccc(OC)cc1)C2c1ccc(C)o1` (stereo not given), which activity change (PNC), negative = inhibition is on record?
**A.** inconclusive: -52.4%

**Q.** Which activity change (PNC), negative = inhibition does the source give for `COCCNC(=O)c1cccc(Nc2nc(-c3ccccc3)c3cc(Cl)ccc3n2)c1` here?
**A.** inactive: -18.6%

**Q.** With `CC1(C)OC(=O)N(c2ccccc2)C12C=Cc1cc(Br)ccc1O2` (stereo not given) as the compound, how does the activity change (PNC), negative = inhibition read?
**A.** inconclusive: -32%

**Q.** Which activity change (PNC), negative = inhibition does the source give for `O=C(NCc1cccnc1)C1CC(=O)N(C2CCCCC2)C1` (stereo not given) here?
**A.** inactive: -16.7%

**Q.** For `Cc1noc(C)c1CSc1ccccc1C(=O)N1CCN(c2ccccc2)CC1`, which activity change (PNC), negative = inhibition is on record?
**A.** active: -100%

**Q.** Which activity change (PNC), negative = inhibition does the source give for `COC(=O)c1sccc1NC(=O)c1ccco1` here?
**A.** inconclusive: -60.4%

**Q.** Which activity change (PNC), negative = inhibition does the source give for `COc1ccccc1N(CC(=O)NCCSc1ccccc1)S(C)(=O)=O` here?
**A.** inconclusive: -69.3%

**Q.** With `CCN(CC)c1ccc(NC(=O)C2CCCN(S(=O)(=O)c3cccnc3)C2)c(C)c1` (stereo not given) as the compound, how does the activity change (PNC), negative = inhibition read?
**A.** inactive: 0.331%

**Q.** For `COc1ccc(C2CC(=O)C3=C(C2)Nc2ncnn2C3c2ccccc2C)cc1` (stereo not given), which activity change (PNC), negative = inhibition is on record?
**A.** inactive: 34.9%

**Q.** Which activity change (PNC), negative = inhibition does the source give for `CCN(CC)S(=O)(=O)c1ccc2[nH]cc(C(=O)NCCc3ccccc3)c(=O)c2c1` here?
**A.** inactive: -4.74%

**Q.** With `CCOc1cc(-c2c(C#N)c(N)nc3c2CCc2ccccc2-3)ccc1O` as the compound, how does the activity change (PNC), negative = inhibition read?
**A.** inconclusive: -30.9%

**Q.** Which activity change (PNC), negative = inhibition does the source give for `O=c1[nH]c(CN2CCc3ccccc32)nc2scc(-c3cccs3)c12` here?
**A.** inconclusive: -56.2%

**Q.** With `O=c1[nH]c(CSc2ccccn2)nc2c1cnn2-c1ccccc1` as the compound, how does the activity change (PNC), negative = inhibition read?
**A.** inconclusive: -69.7%

**Q.** With `Cc1cc(C(=O)COC(=O)c2n[nH]c3ccccc23)c(C)n1C` as the compound, how does the activity change (PNC), negative = inhibition read?
**A.** inconclusive: -35.1%

**Q.** With `CCOC(=O)c1nnc(-c2ccccc2)nc1Oc1ccccc1Cl` as the compound, how does the activity change (PNC), negative = inhibition read?
**A.** inconclusive: -67.9%

**Q.** Which activity change (PNC), negative = inhibition does the source give for `CCCCCOc1ccc(NC(=O)CCCC(=O)O)cc1` here?
**A.** inconclusive: -50.6%

**Q.** With `O=C(Cn1nc(Cl)nc1Cl)c1cc2ccccc2oc1=O` as the compound, how does the activity change (PNC), negative = inhibition read?
**A.** inconclusive: -43.3%

**Q.** With `CCCCNCCCOc1cccc(Cl)c1` as the compound, how does the activity change (PNC), negative = inhibition read?
**A.** inconclusive: -45.2%

**Q.** Which activity change (PNC), negative = inhibition does the source give for `COc1cc(NS(=O)(=O)c2ccc(C)cc2)c2ncccc2c1` here?
**A.** active: -100%

**Q.** With `CN1CCN(C(=S)SCC(=O)Nc2nc(-c3ccccc3)c(-c3ccccc3)o2)CC1` as the compound, how does the activity change (PNC), negative = inhibition read?
**A.** inconclusive: -36.3%

**Q.** For `CCN(CC)C(=O)CSc1nc2ccccc2c(=O)n1-c1ccccc1OC`, which activity change (PNC), negative = inhibition is on record?
**A.** inconclusive: -74.5%

**Q.** For `CCOC(=O)c1nc(Nc2ccc(C(=O)OC)cc2)c2ccccc2n1`, which activity change (PNC), negative = inhibition is on record?
**A.** inactive: -9.55%

**Q.** For `COc1ccc(-c2nn(-c3ccccc3)cc2/C=N/NC(=O)c2ccc(Br)o2)cc1`, which activity change (PNC), negative = inhibition is on record?
**A.** inactive: -29.2%

**Q.** Which activity change (PNC), negative = inhibition does the source give for `CC(=O)c1c(C)[nH]c(C(=O)NCCc2cccc(C)c2)c1C` here?
**A.** inconclusive: -36.2%

**Q.** For `CO[C@H]1C=CO[C@@]2(C)Oc3c(C)c(O)c4c(O)c(c(C=NN5CCN(C)CC5)c(O)c4c3C2=O)NC(=O)C(C)=CC=C[C@H](C)[C@H](O)[C@@H](C)[C@@H](O)[C@@H](C)[C@H](OC(C)=O)[C@@H]1C`, which activity change (PNC), negative = inhibition is on record?
**A.** active: -115%

**Q.** For `COc1ccccc1N1CCN(CC(=O)NCC2CCCO2)CC1` (stereo not given), which activity change (PNC), negative = inhibition is on record?
**A.** active: -119%

**Q.** Which activity change (PNC), negative = inhibition does the source give for `COCCn1c(C)cc(C2=NNC(=Nc3ccc(OC)cc3)SC2)c1C` here?
**A.** inconclusive: -35.1%

**Q.** Which activity change (PNC), negative = inhibition does the source give for `CCC1CCCCN1Cc1nc2c(c(=O)n(C)c(=O)n2C)n1CC(C)C` (stereo not given) here?
**A.** active: -95%

**Q.** With `CCOC(=O)CN1C(=O)C(O)(C2CCc3ccccc3C2=O)c2ccccc21` (stereo not given) as the compound, how does the activity change (PNC), negative = inhibition read?
**A.** inactive: 3.4%

**Q.** Which activity change (PNC), negative = inhibition does the source give for `Cc1ccc(Cn2nnc3c(=O)n(Cc4cccc(C)c4)cnc32)cc1` here?
**A.** inconclusive: -42.7%
